First the molecules themselves.
B1: GCP8 (also known as MZT2) (protein, UniProt Q9CQ25 1-159)
chain: MAAAAAAAGGAALAVSTGLETATLQKLALRRKKVLGAEEMELYELAQAAGAAIDPDVFKILVDLLNLNVAPLAVFQMLKSMCAGQRLASDPQDSVPISLSTSTSETRGRNRGGPILGNVTISAERGSRERPIQRMPRQPSATRLPKVGGSGKSNSRSSP
B2: HIP1 (protein, UniProt Q8VD75 1-1029)
chain: MDRMASSMKQVSNPLPKVLSRRGVGAGMEAAERESFERTQTVSVNKAINTQEVAVKEKHARTCILGTHHEKGAQTFWSVVNRLPLSSNAMLCWKFCHVFHKLLRDGHPNVLKDSLRYKNELSDMSRMWGHLSEGYGQLCSIYLKLLRTRMEYHTKNPRFPGNLQMSDRQLDEAGESDVNNFFQLTVEMFDYLECELNLFQTVFNSLDMSRSVSVTTAGQCRLAPLIQVILDCSHLYDYTVKLLFKLHSCLPADTLQGHRDRFMEQFTKLKDLFQRSSNLQYFKRLIQIPQLPENPPNFLRASALSEHISPVVVIPAEVSSPDSEPVLEKDDLMDMDASQQTLFDNKFDDVFGSSLSSDPFNFNNQNGVNKDEKDHLIERLYREISGLTGQLDNMKIESQRAMLQLKGRVSELEAELAEQQHLGRQAMDDCEFLRTELDELKRQREDTEKAQRSLTEIERKAQANEQRYSKLKEKYSELVQNHADLLRKNAEVTKQVSVARQAQVDLEREKKELADSFARTQEQQDVLENLKHELATSRQELQVLHSNLETSAQSEAKWLTQIAELEKEQGSLATVAAQREEELSALRDQLESTQIKLAGAQESMCQQVKDQRKTLLAGIRKAAEREIQEALSQLEEPTLISCAGSTDHLLSKVSSVSSCLEQLEKNGSQYLACPEDISELLHSITLLAHLTGDTIIQGSATSLRAPPEPADSLTEACRQYGRETLAYLSSLEEEGTMENADVTALRNCLSRVKTLGEELLPRGLDIKQEELGDLVDKEMAATSAAIEAATTRIEEILSKSRAGDTGVKLEVNERILGSCTSLMQAIKVLVVASKDLQKEIVESGRGTASPKEFYAKNSRWTEGLISASKAVGWGATIMVDAADLVVQGKGKFEELMVCSREIAASTAQLVAASKVKANKGSLNLTQLQQASRGVNQATAAVVASTISGKSQIEETDSMDFSSMTLTQIKRQEMDSQVRVLELENDLQKERQKLGELRKKHYELAGVAEGWEEGTEASPSTVQEAIPDKE
B3: AP180 (protein, UniProt Q61548 1-901)
chain: MSGQTLTDRIAAAQYSVTGSAVARAVCKATTHEVMGPKKKHLDYLIQATNETNVNIPQMADTLFERATNSSWVVVFKALVTTHHLMVHGNERFIQYLASRNTLFNLSNFLDKSGSHGYDMSTFIRRYSRYLNEKAFSYRQMAFDFARVKKGADGVMRTMVPEKLLKSMPILQGQIDALLEFDVHPNELTNGVINAAFMLLFKDLIKLFACYNDGVINLLEKFFEMKKGQCKDALEIYKRFLTRMTRVSEFLKVAEQVGIDKGDIPDLTQAPSSLMETLEQHLNTLEGKKPGNNEGSGAPSPLSKSSPATTVTSPNSTPAKTIDTSPPVDIFATASAAAPVSSAKPSSDLLDLQPDFSGAAAGAAAPVVPPSGGATAWGDLLGEDSLAALSSVPCEAPISDPFAPEPSPPTTTTEPASASASTTTAVTAVTTEVDLFGDAFAASPGEAPAASEGATAPATPAPVAAALDACSGNDPFAPSEGSAEAAPELDLFAMKPPETSAPVVTPTASTAPPVPATAPSPAPTAVAATAATTTAAAAATTTATTSAAAATTAAAPPALDIFGDLFDSAPEVAAAPKPDAAPSIDLFGTDAFSSPPRGASPVPESSLTADLLSVDAFAAPSPASTASPAKAESSGVIDLFGDAFGSGASETQPAPQAVSSSSASADLLAGFGGSFMAPSTTPVTPAQNNLLQPSFEAAFGTTPSTSSSSSFDPSVFDGLGDLLMPTMAPSGQPAPVSMVPPSPAMAASKGLGSDLDSSLASLVGNLGISGTTSKKGDLQWNAGEKKLTGGANWQPKVTPATWSAGVPPQGTVPPTSSVPPGAGAPSVGQPGAGFGMPPSGTGMTMMSQQPVMFAQPMMRPPFGAAAVPGTQLSPSPTPATQSPKKPPAKDPLADLNIKDFL

Protein sequences, listed by entry. Tags and fused reporters are not part of them.
UniProt P17426: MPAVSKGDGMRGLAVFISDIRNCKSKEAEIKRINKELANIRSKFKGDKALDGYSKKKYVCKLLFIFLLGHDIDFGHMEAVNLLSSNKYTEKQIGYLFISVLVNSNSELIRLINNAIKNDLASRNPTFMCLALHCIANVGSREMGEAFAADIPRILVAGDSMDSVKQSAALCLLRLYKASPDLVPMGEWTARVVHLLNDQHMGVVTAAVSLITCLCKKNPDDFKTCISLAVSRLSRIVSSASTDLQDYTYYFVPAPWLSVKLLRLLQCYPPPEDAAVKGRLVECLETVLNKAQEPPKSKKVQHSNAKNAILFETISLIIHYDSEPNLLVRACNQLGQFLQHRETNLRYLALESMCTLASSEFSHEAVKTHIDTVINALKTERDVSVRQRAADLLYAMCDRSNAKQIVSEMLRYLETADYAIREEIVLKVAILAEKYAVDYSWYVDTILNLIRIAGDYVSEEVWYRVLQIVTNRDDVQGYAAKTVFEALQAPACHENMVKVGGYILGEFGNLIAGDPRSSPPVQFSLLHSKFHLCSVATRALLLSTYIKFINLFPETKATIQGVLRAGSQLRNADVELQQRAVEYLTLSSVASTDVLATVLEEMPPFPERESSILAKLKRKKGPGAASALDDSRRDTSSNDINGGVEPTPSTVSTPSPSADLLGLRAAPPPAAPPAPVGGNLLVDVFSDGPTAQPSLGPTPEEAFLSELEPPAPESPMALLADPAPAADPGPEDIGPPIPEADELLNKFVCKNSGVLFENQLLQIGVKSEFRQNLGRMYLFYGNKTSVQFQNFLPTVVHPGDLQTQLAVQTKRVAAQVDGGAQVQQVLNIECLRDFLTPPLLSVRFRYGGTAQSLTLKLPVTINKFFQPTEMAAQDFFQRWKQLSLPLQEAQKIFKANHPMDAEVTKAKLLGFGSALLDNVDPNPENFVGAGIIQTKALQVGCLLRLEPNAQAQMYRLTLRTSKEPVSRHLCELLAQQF
UniProt Q921G8: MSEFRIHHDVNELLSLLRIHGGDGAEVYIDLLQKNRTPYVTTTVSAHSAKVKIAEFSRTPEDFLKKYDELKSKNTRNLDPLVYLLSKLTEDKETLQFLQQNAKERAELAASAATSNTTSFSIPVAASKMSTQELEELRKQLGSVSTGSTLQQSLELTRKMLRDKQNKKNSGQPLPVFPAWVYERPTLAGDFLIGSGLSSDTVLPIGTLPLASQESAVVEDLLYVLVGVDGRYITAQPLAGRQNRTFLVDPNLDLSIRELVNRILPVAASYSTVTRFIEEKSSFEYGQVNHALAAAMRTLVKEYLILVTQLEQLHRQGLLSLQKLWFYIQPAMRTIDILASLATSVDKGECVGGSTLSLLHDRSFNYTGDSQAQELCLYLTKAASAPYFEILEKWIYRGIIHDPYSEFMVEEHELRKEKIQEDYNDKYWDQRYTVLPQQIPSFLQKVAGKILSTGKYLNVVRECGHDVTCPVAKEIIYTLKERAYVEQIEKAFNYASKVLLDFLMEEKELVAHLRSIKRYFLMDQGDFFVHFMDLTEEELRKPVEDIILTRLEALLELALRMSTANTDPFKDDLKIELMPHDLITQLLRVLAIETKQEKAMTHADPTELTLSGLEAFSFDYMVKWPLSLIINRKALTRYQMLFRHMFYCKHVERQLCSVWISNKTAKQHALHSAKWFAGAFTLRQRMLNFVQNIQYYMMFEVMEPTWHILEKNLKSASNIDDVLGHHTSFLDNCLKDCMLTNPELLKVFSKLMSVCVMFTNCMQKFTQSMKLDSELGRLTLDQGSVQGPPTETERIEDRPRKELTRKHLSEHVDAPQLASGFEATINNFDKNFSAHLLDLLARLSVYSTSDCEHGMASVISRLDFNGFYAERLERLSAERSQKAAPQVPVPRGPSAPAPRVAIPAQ
UniProt Q9D4F8: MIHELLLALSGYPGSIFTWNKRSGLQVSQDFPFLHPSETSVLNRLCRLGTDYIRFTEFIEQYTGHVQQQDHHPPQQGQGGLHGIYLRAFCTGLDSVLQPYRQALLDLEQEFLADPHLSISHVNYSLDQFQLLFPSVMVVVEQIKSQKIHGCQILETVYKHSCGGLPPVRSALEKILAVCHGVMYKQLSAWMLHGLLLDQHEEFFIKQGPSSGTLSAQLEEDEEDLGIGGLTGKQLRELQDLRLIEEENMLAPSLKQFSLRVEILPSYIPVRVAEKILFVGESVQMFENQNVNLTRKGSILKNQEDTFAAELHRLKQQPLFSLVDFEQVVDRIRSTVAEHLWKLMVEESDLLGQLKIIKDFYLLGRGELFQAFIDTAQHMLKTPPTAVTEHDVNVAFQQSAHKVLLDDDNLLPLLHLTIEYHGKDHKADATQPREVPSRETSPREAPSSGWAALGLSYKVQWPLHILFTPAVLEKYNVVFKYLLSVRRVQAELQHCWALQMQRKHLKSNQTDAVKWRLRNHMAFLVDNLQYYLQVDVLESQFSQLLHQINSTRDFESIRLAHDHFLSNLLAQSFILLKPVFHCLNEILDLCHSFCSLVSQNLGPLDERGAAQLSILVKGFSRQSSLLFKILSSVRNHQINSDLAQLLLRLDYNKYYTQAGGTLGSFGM
UniProt P58854: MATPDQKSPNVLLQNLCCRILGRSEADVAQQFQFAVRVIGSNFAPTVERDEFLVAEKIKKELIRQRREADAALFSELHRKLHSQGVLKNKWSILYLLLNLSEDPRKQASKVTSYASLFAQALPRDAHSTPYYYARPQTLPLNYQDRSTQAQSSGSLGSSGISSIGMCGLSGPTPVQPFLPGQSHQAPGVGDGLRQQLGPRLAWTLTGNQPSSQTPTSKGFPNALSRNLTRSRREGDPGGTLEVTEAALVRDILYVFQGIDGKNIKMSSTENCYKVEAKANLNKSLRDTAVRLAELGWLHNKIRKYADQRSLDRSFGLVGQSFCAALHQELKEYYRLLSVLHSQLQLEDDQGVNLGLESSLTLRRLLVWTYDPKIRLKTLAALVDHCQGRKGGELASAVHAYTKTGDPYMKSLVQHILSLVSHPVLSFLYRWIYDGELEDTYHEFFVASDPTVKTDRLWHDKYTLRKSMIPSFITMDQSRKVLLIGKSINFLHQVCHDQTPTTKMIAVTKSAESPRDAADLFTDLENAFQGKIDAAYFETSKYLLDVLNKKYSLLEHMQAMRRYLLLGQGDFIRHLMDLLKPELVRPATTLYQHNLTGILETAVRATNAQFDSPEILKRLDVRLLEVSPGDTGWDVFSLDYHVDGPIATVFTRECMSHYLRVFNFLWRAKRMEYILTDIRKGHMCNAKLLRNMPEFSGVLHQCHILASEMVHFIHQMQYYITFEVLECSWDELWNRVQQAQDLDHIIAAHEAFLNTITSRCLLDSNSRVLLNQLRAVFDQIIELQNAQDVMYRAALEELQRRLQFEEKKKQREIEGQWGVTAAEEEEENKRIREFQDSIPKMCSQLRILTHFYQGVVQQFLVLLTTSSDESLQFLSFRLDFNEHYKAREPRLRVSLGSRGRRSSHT

These are yes or no findings as the source states them, for the method shown. In cells and extracts the contact can be indirect. These calls come from enrichment with a bait or labelling near it, and not all partners need be listed.

For the test, the target named is AP-2α subunit of the AP-2 complex (mouse (endogenous in cortex)) (UniProt P17426). As to the kind of experiment: affinity purification with mass spectrometry; AP-2α antibody on Dynabeads Protein G as bait, IgG as control; embryonic mouse cortex (E12.5 in the results, E14-E16 in the methods) homogenised in Co-IP buffer (50 mM Tris-HCl pH 7.4, 100 mM NaCl, 1% NP-40, 2 mM MgCl2); label-free quantification, N = 5.
On to “GCP2 component of γ-TuRC (from UniProt Q921G8 1-905)”, for which the binding entry is reported as “binds”.

Take “GCP4 component of γ-TuRC (from UniProt Q9D4F8 1-667)”: the binding result is “binds”.

With “GCP3 component of γ-TuRC (from UniProt P58854 1-905)”, the binding result is reported as “binds”.

In the case of B1, the binding result is given as “binds”.

Regarding B2, the binding entry is “binds”.

As for B3, the binding result was “binds”.
